Results published in PubChem BioAssay AID504834 (National Center for Advancing Translational Sciences (NCATS), 2011).
About 22,000 (6.9%) of roughly 320,000 compounds were called active. The shares of active, inactive and inconclusive entries below differ from those in the screen. Calls come from the whole dose curve; as a rule, active = well fitted inhibition curve with a large enough effect; inconclusive = small, poorly fitted or top-dose-only effect, or another doubt; inactive = no such curve, though single readings can be large or run the other way. Potencies of inconclusive entries are doubtful fits and often do not repeat.

Experiment: Primary qHTS for delayed death inhibitors of the malarial parasite plastid, 96 hour incubation
Details: P. falciparum luciferase reporter growth; series mostly up to 28.7 µM
Procedure, shortened: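 Delayed-death screen, second-generation endpoint: infected erythrocytes, 2% hematocrit, 0.05% parasitemia final; 96 hours at 37 C, 5% CO2; luciferase detection reagent; luminescence decrease equals reduced growth.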
% is set by controls: 0 for no effect and ±100 for the full control effect; potency is the fitted concentration of half-maximal effect.

Row | SMILES | Potency | activity change, negative = inhibition
1 | CCCS(=O)(=O)c1nc(S(=O)(=O)c2ccc(C)cc2)c(N2CCN(CCO)CC2)s1 | inconclusive: 9.28 µM [inhibitor, single point] | –
2 | CC1(c2ccc3c(c2)OCCO3)NC(=O)N(CC(=O)Nc2ccccc2)C1=O (stereo not given) | inconclusive: 1.17 µM [inhibitor, partial curve, poor fit] | –
3 | O=C(CN1C(=O)C2C3C=CC(C3)C2C1=O)OCC(=O)c1ccc(Cl)cc1 (stereo not given) | inactive | –
4 | O=C(CN1CCN(c2ccc(C(F)(F)F)cn2)CC1)NCc1ccc2c(c1)OCO2 | inconclusive: 14.7 µM [inhibitor, single point] | –
5 | COc1ccc(-c2[nH]ncc2CN2CCC(C(=O)c3ccc(F)cc3)CC2)cc1 | inconclusive: 5.22 µM [inhibitor, partial curve, poor fit] | –
6 | COc1ccc(C(=O)NNC(=O)c2cc(C)nc3ccccc23)cc1 | inconclusive: 18.5 µM [inhibitor, single point] | –
7 | CCCCOC(=O)C1C2C=CC3(CN(CCc4ccccc4)C(=O)C13)O2 (stereo not given) | inconclusive: 18.5 µM [inhibitor, single point] | –
8 | Nc1c(C(=O)O)cnn1-c1ccc([N+](=O)[O-])cc1 | inactive | –
9 | COC(=O)c1ccc(S(=O)(=O)N(Cc2ccccc2)Cc2ccccc2)n1C | inconclusive: 1.47 µM [inhibitor, full curve] | –
10 | Cc1cc2cc(CCNC(=O)c3ccc(C)c([N+](=O)[O-])c3)c(=O)[nH]c2cc1C | inconclusive: 18.5 µM [inhibitor, single point] | –
11 | CCn1c(C)cc(/C=C2/SC(=O)N(C(C)C(=O)OC)C2=O)c1C (stereo not given) | inactive | –
12 | CC(=O)Nc1ccc(NC(=O)C(=O)c2cn(CC(=O)N3CCCCC3)c3ccccc23)cc1 | inconclusive: 4.15 µM [inhibitor, single point] | –
13 | CC(C)CCn1c(N2CCC(C(N)=O)CC2)nc2c1c(=O)[nH]c(=O)n2C | inconclusive: 1.31 µM [inhibitor, partial curve, poor fit] | –
14 | COC(=O)c1ccc(N2NC(=O)/C(=C/c3cc(OC)c(OC)c(OC)c3)C2=O)cc1 | inactive | –
15 | Cc1cc(C)nc(N2CCC(C(=O)NC3CC3)CC2)n1 | inconclusive: 10.4 µM [inhibitor, partial curve, poor fit] | –
16 | COc1cc(CN2CCN(Cc3ccc(C)cc3)C(CCO)C2)cc(OC)c1O (stereo not given) | inactive | –
17 | COc1ccc(NC(=O)C2CC(c3ccc(OC)c(OC)c3)=NO2)cc1OC (stereo not given) | active: 13.1 µM | –
18 | COc1ccccc1CNS(=O)(=O)c1ccc2c(c1)NC(=O)CO2 | inconclusive: 18.5 µM [inhibitor, single point] | –
19 | CC(C)c1nnc(NC(=O)CCCC(=O)O)s1 | inconclusive: 3.29 µM [inhibitor, partial curve] | –
20 | CC1CN(C(=O)CN2C(=O)c3ccccc3C2=O)CC(C)O1 (stereo not given) | inconclusive: 11.7 µM [inhibitor, single point] | –
21 | COc1cccc(CN2CCN(Cc3nc(-c4cccc(F)c4F)oc3C)CC2=O)c1 | inconclusive: 13.1 µM [inhibitor, single point] | –
22 | Cn1nccc1C(=O)N1CCC(Cc2ccccc2)CC1 | inconclusive: 18.5 µM [inhibitor, single point] | –

Row | SMILES | Potency | activity change, negative = inhibition
23 | CCCCC(=O)Nc1cc(-c2nc3ncccc3o2)ccc1C | – | inactive: 57.7% [at 1.15 µM]
24 | O=C(CSc1nc2ccc(Cl)cc2[nH]1)NC1CCCc2ccccc21 (stereo not given) | inconclusive: 18.5 µM [inhibitor, single point] | –
25 | O=C(C1CCCCN1S(=O)(=O)c1ccccc1)N1CCN(C(c2ccccc2)c2ccccc2)CC1 (stereo not given) | active: 1.85 µM | –
26 | CON(C)S(=O)(=O)c1ccc2c(c1)NC(=O)C1CCCN21 (stereo not given) | inconclusive: 4.65 µM [inhibitor, full curve, poor fit] | –
27 | CC1CC(C)CN(C(=O)CCNS(=O)(=O)c2cccs2)C1 (stereo not given) | inactive | –
28 | Cc1c(Cl)c([N+](=O)[O-])nn1CC(=O)N1CCCC1 | inconclusive: 14.7 µM [inhibitor, single point] | –
29 | O=C(CCSc1nc2ccccc2s1)N/N=C/c1c(O)ccc2ccccc12 | active: 2.94 µM | –
30 | COc1ccc(CNCC(O)(c2ccc(F)cc2)c2ccc(F)cc2)cc1 | inconclusive: 8.28 µM [inhibitor, partial curve, poor fit] | –
31 | CCn1cnc2c1c(=O)n(CC(=O)N1CCc3ccccc31)c(=O)n2Cc1ccccc1 | inconclusive: 14.7 µM [inhibitor, partial curve, poor fit] | –
32 | O=c1c(Cc2ccccc2)c(O)ccn1C1CCCCCCC1 | – | inactive: -41.8% [at 5.75 µM]
33 | COc1ccc(CNC(=O)c2ccc(NC(=O)C3CCCO3)cc2)cc1 (stereo not given) | inactive | –
34 | COc1ccc(/C=N/OCC(=O)Nc2nc3ccccc3s2)cc1OC | inactive | –
35 | COc1cccc(C(=O)OCCN2CCCCC2)c1 | inactive | –
36 | COc1ccc(CN2C(=O)c3cccnc3C2=O)cc1S(=O)(=O)NCc1ccco1 | inconclusive: 11.7 µM [inhibitor, single point] | –
37 | CCCn1c(=O)c2[nH]cnc2n(-c2ccc(Cl)cc2)c1=O | inconclusive: 14.7 µM [inhibitor, partial curve, poor fit] | –
38 | Cc1nn(CC(=O)N2CCCCCC2)c(=O)c2cc3occc3n12 | inconclusive: 10.4 µM [inhibitor, single point] | –
39 | COc1ccc(O[C@H]2C=C[C@@H](c3ccccc3)O[C@@H]2COC(=O)CC/C(C)=N/O[C@@H](C)CN2CCCCc3nc(C)c(C)cc32)cc1 | active: 8.28 µM | –
40 | CCN(CC)S(=O)(=O)c1cccc(-c2nnc(SCc3nnc(-c4ccccc4)o3)n2C)c1 | inconclusive: 7.38 µM [inhibitor, partial curve, poor fit] | –
41 | CCOc1ccc(NC(=O)NNC(=O)c2cccnc2)cc1 | inactive | –
42 | CC(=O)c1c(C)[nH]c(C(=O)N2CCN(c3ncccn3)CC2)c1C | inconclusive: 13.1 µM [inhibitor, single point] | –
43 | COCCOC(=O)C1=C(C)N=C2SCCC(=O)N2C1c1ccc(C(=O)OC)cc1 (stereo not given) | inconclusive: 7.38 µM [inhibitor, partial curve, poor fit] | –
44 | O=S(=O)(NC1CCc2ccccc21)c1ccc(S(=O)(=O)N2CCCC2)cc1 (stereo not given) | inconclusive: 18.5 µM [inhibitor, single point] | –

Record cards, from the list above:
Cc1cc2cc(CCNC(=O)c3ccc(C)c([N+](=O)[O-])c3)c(=O)[nH]c2cc1C is entered as Potency: inconclusive: 18.5 µM [inhibitor, single point]
COc1ccc(CN2C(=O)c3cccnc3C2=O)cc1S(=O)(=O)NCc1ccco1 is entered as Potency: inconclusive: 11.7 µM [inhibitor, single point]

(listing goes on)

Row | SMILES | Potency | activity change, negative = inhibition
45 | CCN1CCN(c2ccc(S(=O)(=O)N3CCCCC3)cc2NC(=O)Cc2ccccc2F)CC1 | inconclusive: 13.1 µM [inhibitor, single point] | –
46 | CCOC(=O)Cc1cc(=O)[nH]c(/N=C(\N)Nc2ccc(C)c(C)c2)n1 | inactive | –
47 | COc1cc(F)cc(C2=CC(=O)C[C@H](c3ccc(F)cc3)C2)c1 | inconclusive: 18.5 µM [inhibitor, single point] | –
48 | O=C(O)Cn1c(CCS(=O)(=O)c2ccc(Br)cc2)nc2ccccc21 | inconclusive: 4.65 µM [inhibitor, partial curve, poor fit] | –
49 | COc1cc2c(cc1OC)C(c1cccc(Cl)c1Cl)CC(=O)N2 (stereo not given) | inconclusive: 18.5 µM [inhibitor, single point] | –
50 | CCCCn1c(O)c(C(CC)=Nc2ccc3c(c2)CCC3)c(=O)[nH]c1=O | inconclusive: 11.7 µM [inhibitor, partial curve] | –
51 | CC1CCc2nc3ccccc3c(C(=O)OCC(=O)N(C)C3CCS(=O)(=O)C3)c2C1 (stereo not given) | inconclusive: 5.86 µM [inhibitor, partial curve, poor fit] | –
52 | Cn1nnnc1SCCNCc1ccncc1 | inconclusive: 8.28 µM [inhibitor, partial curve, poor fit] | –
53 | C[C@@H](C(=O)Nc1ccc2c(c1)OCCO2)n1c(=O)[nH]c2ccccc2c1=O | inactive | –
54 | CCOC(=O)N1CCN(S(=O)(=O)c2ccc(C(=O)Nc3sc4c(c3C(N)=O)CC(C)(C)NC4(C)C)cc2)CC1 | inconclusive: 10.4 µM [inhibitor, single point] | –
55 | CC(C)(C)c1ccc(Cn2c(=O)cnc3ccccc32)cc1 | inconclusive: 9.28 µM [inhibitor, partial curve, poor fit] | –
56 | O=C1CC(c2cccs2)c2cc3c(cc2N1)OCO3 (stereo not given) | inconclusive: 18.5 µM [inhibitor, single point] | –
57 | O=C1CC(c2ccc(F)cc2)Cc2nc(NCc3ccco3)ncc21 (stereo not given) | inconclusive: 16.5 µM [inhibitor, single point] | –
58 | CCSc1cc(N2CCOCC2)nc(-c2ccccc2)n1 | inconclusive: 13.1 µM [inhibitor, single point] | –
59 | Cc1ccccc1-n1c(C)nnc1SCC(=O)N(C)C1CCS(=O)(=O)C1 (stereo not given) | inactive | –
60 | Cc1ccc(CSc2nnc(-c3cccc(S(=O)(=O)N4CCOCC4)c3)n2CC(C)C)cc1 | inconclusive: 10.4 µM [inhibitor, single point] | –
61 | CCN(CC)C(=O)c1cccc2c1C(=O)c1ccccc1-2 | inconclusive: 18.5 µM [inhibitor, single point] | –
62 | Cc1ccc(C)c(N2CCN(C(=O)CCCN3C(=S)NC(C)(C)CC3C)CC2)c1 (stereo not given) | inconclusive: 10.4 µM [inhibitor, single point] | –
63 | O=C1C2C3C=CC(C3)C2C(=O)N1/N=C/c1cn(Cc2ccccc2)c2ccccc12 (stereo not given) | inconclusive: 18.5 µM [inhibitor, single point] | –
64 | COc1ccc(C(=O)NCc2ccc(C(=O)O)o2)cc1 | inconclusive: 10.4 µM [inhibitor, single point] | –
65 | NS(=O)(=O)c1ccc(Nc2ccc3cc(S(=O)(=O)N4CCCCC4)ccc3n2)cc1 | inconclusive: 13.1 µM [inhibitor, single point] | –
